{"source": "PubChem BioAssay AID1259415", "about": "(National Center for Advancing Translational Sciences (NCATS), 2018)", "note": "“And” between values parts separate entries of the source, which are not always exact repeats. Equal entries are not always repeated. The whole screen tested about 410,000 compounds, of which about 18,000 (4.4%) were called active. The inconclusive results got no clear call from the source; some entries with a clear call stand among them for comparison. Cut-off read from the data, not from the text of the source: active = activity change below about -60%; inconclusive = no clear call, values can overlap the other calls; inactive = above about -39%. % is set by controls: 0 for no effect and ±100 for the full control effect.", "data": [{"assay": "qHTS Assay for inhibitors of the human cytomegalovirus (HCMV)", "settings": "HFF cells, HCMV-luciferase reporter, 72 h; at 57.5 µM; stronger effect = lower value", "outline": "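Two-dose cell screen: HFF monolayers treated with compounds and infected with luciferase-expressing HCMV at 1 PFU/cell, 72 h at 37C, then lysed for luciferase measurement.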", "values": [{"compound": "Cc1ccccc1NC(=O)c1cn(-c2ccccc2)nc1-c1ccccc1", "activity change, negative = inhibition": "inactive: -33.2% and inconclusive: -50.3%"}, {"compound": "Cc1cccc(COCC(CC(C)C)N2CCN(C(=O)c3ccc(C(C)(C)C)cc3)CCC2=O)c1", "note": "(stereo not drawn)", "activity change, negative = inhibition": "inactive: 9.96%"}, {"compound": "C/C(=N\\NC(=O)c1nc2ccccn2c1C)c1cc2ccccc2o1", "activity change, negative = inhibition": "inconclusive: -46.2%"}, {"compound": "O=C(/C=C/c1ccc(NC(=O)c2ccccc2-c2ccccc2C(=O)O)cc1)c1ccccc1", "activity change, negative = inhibition": "inactive: 6.35%"}, {"compound": "Cc1csc(NC(=O)c2cc(C)on2)n1", "activity change, negative = inhibition": "inactive: 51.3%"}, {"compound": "Cc1ccc(NC(=O)C[n+]2cc(-c3ccccc3)n3c2CCC3)c(C)c1", "activity change, negative = inhibition": "inconclusive: -43.1%"}, {"compound": "COc1ccc2cc(C3CC(c4ccco4)=NN3C(=O)CCC(=O)O)c(Cl)nc2c1", "note": "(stereo not drawn)", "activity change, negative = inhibition": "inconclusive: -41.7%"}, {"compound": "CC(C(=O)NCCC1=CCCCC1)N1C(=O)c2ccccc2C1=O", "note": "(stereo not drawn)", "activity change, negative = inhibition": "inactive: 1.18%"}, {"compound": "C=CCn1c(SCC(=O)c2ccccc2)nnc1-c1cc2ccccc2o1", "activity change, negative = inhibition": "inconclusive: -47.9%"}, {"compound": "Cc1cccc(N2CCN(C(c3cccs3)c3nnnn3C(C)(C)C)CC2)c1C", "note": "(stereo not drawn)", "activity change, negative = inhibition": "inconclusive: -45.3%"}, {"compound": "O=C(Cc1cccc2ccccc12)NCC(=O)N1CCN(CC(=O)Nc2ccc(F)cc2)CC1", "activity change, negative = inhibition": "inactive: 45.3%"}, {"compound": "C=CCOc1ccc(/C=N/NC(=O)CN2CCCCC2)cc1OC", "activity change, negative = inhibition": "inactive: 13.1%"}, {"compound": "CCCNC(=O)Cn1cnc2sc(C(=O)N3CCN(Cc4ccc5c(c4)OCO5)CC3)c(C)c2c1=O", "activity change, negative = inhibition": "inconclusive: -52.2%"}, {"compound": "Cc1ccc(N(C(=O)c2csnn2)C(C(=O)NC2CCCCC2)c2ccco2)cc1", "note": "(stereo not drawn)", "activity change, negative = inhibition": "active: -61.5%"}, {"compound": "COc1cccc(-n2sc3c(c2=S)-c2cc(OC)ccc2NC3(C)C)c1", "activity change, negative = inhibition": "inactive: -24.5%"}, {"compound": "Cc1ccc(NC(=O)CN2C(=O)COc3ccc(S(=O)(=O)N4CCCCCC4)cc32)cc1Cl", "activity change, negative = inhibition": "active: -83.7%"}, {"compound": "Cc1cc(C2(c3ccc(O)c(C)c3)C(=O)Nc3ccccc32)ccc1O", "activity change, negative = inhibition": "active: -79.6%"}, {"compound": "CCCCn1c(=NC(=O)C(C)(C)Oc2ccc(Cl)cc2)c(C(=O)OCC)cc2c(=O)n3ccccc3nc21", "activity change, negative = inhibition": "inactive: 32.5%"}, {"compound": "COc1ccc(-c2nc(CN3CCN(C(=O)c4ccco4)CC3)c(C)o2)c(OC)c1C", "activity change, negative = inhibition": "inactive: -5.98%"}, {"compound": "c1ccc(CSCc2cn3ccsc3n2)cc1", "activity change, negative = inhibition": "inactive: 31.2%"}, {"compound": "Cc1cccc(C)c1NC(=O)COC(=O)c1cccc2c1C(=O)c1ccccc1C2=O", "activity change, negative = inhibition": "inconclusive: -43.9%"}, {"compound": "Cc1ccc2c(c1)C1CN(C)CCC1N2C(=O)COc1ccc(N(C)C(=O)c2ccccc2)cc1", "note": "(stereo not drawn)", "activity change, negative = inhibition": "inconclusive: -40.6%"}, {"compound": "O=C(Cc1ccc([N+](=O)[O-])cc1)N1CCN=C1SCc1ccccc1", "activity change, negative = inhibition": "inconclusive: -51.7%"}, {"compound": "COc1ccc(N(CC(=O)NCc2ccc(F)cc2)C(=O)Cn2nnc(-c3ccc(C)o3)n2)cc1OC", "activity change, negative = inhibition": "inactive: 8.34%"}, {"compound": "Clc1ccc(-c2nc3ccccc3nc2-c2ccccc2)cc1", "activity change, negative = inhibition": "inactive: -4.89%"}, {"compound": "CCc1ccc(C(=O)COC(=O)C(Cc2c[nH]c3ccccc23)NC(=O)c2ccc(CC)cc2)cc1", "note": "(stereo not drawn)", "activity change, negative = inhibition": "inconclusive: 0%"}, {"compound": "CCCCC1(Br)C(=O)N(c2ccccc2)N(c2ccccc2)C1=O", "activity change, negative = inhibition": "inconclusive: -43.1%"}, {"compound": "Cc1ccc2oc(=O)c3cc(C(=O)NCCCN4CCC(C)CC4)sc3c2c1", "activity change, negative = inhibition": "inconclusive: -47.9%"}, {"compound": "Cc1ccccc1CC1(CO)CCCN(C(=O)c2cc(Cl)ccc2F)C1", "note": "(stereo not drawn)", "activity change, negative = inhibition": "inactive: 5.74%"}, {"compound": "CN(CCc1ccccc1)C(=O)c1ccc(NC(=O)Cc2ccc(NC(=O)C3CCN(C(=O)C4CC4)CC3)cc2)cc1", "activity change, negative = inhibition": "inconclusive: -55.9%"}, {"compound": "O=C(COC(=O)c1ccc(F)c(S(=O)(=O)N2CCOCC2)c1)NCc1ccco1", "activity change, negative = inhibition": "inconclusive: -47.6%"}, {"compound": "CSc1ccccc1NC(=O)N1CCCC(C(=O)c2ccc3c(c2)OCO3)C1", "note": "(stereo not drawn)", "activity change, negative = inhibition": "inconclusive: -47.4%"}, {"compound": "CCOC(=O)N1CCC(N2C(=O)c3ccc(C(=O)Nc4ccc(OC)c(OC)c4)cc3C2=O)CC1", "activity change, negative = inhibition": "inconclusive: -41.3%"}, {"compound": "CC(=O)Nc1cccc(-c2ccnc3c2CC(C(=O)Nc2ccc4c(c2)OCO4)O3)c1", "note": "(stereo not drawn)", "activity change, negative = inhibition": "inconclusive: -50.3%"}, {"compound": "Cc1ccccc1CC1(CO)CCCN(C(=O)c2ccc3ncccc3c2)C1", "note": "(stereo not drawn)", "activity change, negative = inhibition": "inconclusive: -57.6%"}, {"compound": "CCC(=O)Nc1nnc(C)s1", "activity change, negative = inhibition": "inactive: -5%"}, {"compound": "Cc1ccc(CN2CC(C(=O)N3CCN(c4ccccc4O)CC3)CC2=O)cc1", "note": "(stereo not drawn)", "activity change, negative = inhibition": "inactive: -27%"}, {"compound": "Cc1ccccc1NS(=O)(=O)c1cc(C(=O)NCCC2=CCCCC2)ccc1Cl", "activity change, negative = inhibition": "inconclusive: -45.7%"}, {"compound": "Nc1cc(C(=O)Nc2ccc(Cl)cc2)ccc1N1CC2CC(C1)c1cccc(=O)n1C2", "note": "(stereo not drawn)", "activity change, negative = inhibition": "inconclusive: -44.3%"}, {"compound": "COc1ccc(C(Nc2ccccn2)c2c(NC(=O)c3ccco3)sc(C)c2C)cc1OC", "note": "(stereo not drawn)", "activity change, negative = inhibition": "inconclusive: -56.9%"}, {"compound": "CCN(CC)c1cc(C)c2cc(NC(=O)c3cccs3)ccc2n1", "activity change, negative = inhibition": "inconclusive: -45.7%"}, {"compound": "Cc1cc(C)c(S(=O)(=O)N2CCCCCC2)cc1Br", "activity change, negative = inhibition": "inconclusive: -48%"}, {"compound": "Cc1cc(C)cc(NC(=O)CSc2nc3c([nH]c4ccccc43)c(=O)n2-c2ccc(F)cc2)c1", "activity change, negative = inhibition": "active: -88%"}]}]}
